{
  "source": "the supplement of paper PMC10032668",
  "test_in_all_cases": "PRISMA enrichment of interactor (LFQ) in peptide spot vs all other peptide spots (log2 fold change); higher = stronger / more specific binding of the interactor to the peptide",
  "key": {"TRMT112, Q9UI30": {"molecular_target": "TRMT112, Q9UI30", "procedure": "(§1)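 PRISMA: 15-aa overlapping tiles (offset 8 aa) of 60 microproteins, plus SOS1/GLUT1 control peptides, were spot-synthesized on cellulose membranes in triplicate. Membranes were incubated with benzonase-treated HEK293T lysate, and bound proteins were identified by LC-MS/MS with LFQ. Enrichment is the log2 fold change of each protein in one spot versus all other spots. Only interactors passing the significance cutoff are listed.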"}, "UBIAD1, Q9Y5Z9": {"molecular_target": "UBIAD1, Q9Y5Z9", "procedure": "as §1"}, "YTHDC2, Q9H6S0": {"molecular_target": "YTHDC2, Q9H6S0", "procedure": "as §1"}},
  "note": "Some of the results follow. The list holds hits alone, and they repeat only in part.",
  "data": [
    {"binder": "LNGKLKSPLGTSVTI", "note": "[CTC-471J1.11]", "values": [
      {"measurement": "PRISMA enrichment of interactor (log2)", "setting": "TRMT112, Q9UI30", "result": 8.51},
      {"measurement": "PRISMA enrichment of interactor (log2)", "setting": "UBIAD1, Q9Y5Z9", "result": 4.03},
      {"measurement": "PRISMA enrichment of interactor (log2)", "setting": "YTHDC2, Q9H6S0", "result": 4.59}
    ]}
  ]
}
